Results are given in words; binding and its absence hold for the method and conditions named. Some entries that bind do so weakly or less than the wild type.

The experiment has as its target T1, Mms4 of the wild-type Mus81–Mms4 complex (budding yeast) (UniProt P38257).
T1 sequence: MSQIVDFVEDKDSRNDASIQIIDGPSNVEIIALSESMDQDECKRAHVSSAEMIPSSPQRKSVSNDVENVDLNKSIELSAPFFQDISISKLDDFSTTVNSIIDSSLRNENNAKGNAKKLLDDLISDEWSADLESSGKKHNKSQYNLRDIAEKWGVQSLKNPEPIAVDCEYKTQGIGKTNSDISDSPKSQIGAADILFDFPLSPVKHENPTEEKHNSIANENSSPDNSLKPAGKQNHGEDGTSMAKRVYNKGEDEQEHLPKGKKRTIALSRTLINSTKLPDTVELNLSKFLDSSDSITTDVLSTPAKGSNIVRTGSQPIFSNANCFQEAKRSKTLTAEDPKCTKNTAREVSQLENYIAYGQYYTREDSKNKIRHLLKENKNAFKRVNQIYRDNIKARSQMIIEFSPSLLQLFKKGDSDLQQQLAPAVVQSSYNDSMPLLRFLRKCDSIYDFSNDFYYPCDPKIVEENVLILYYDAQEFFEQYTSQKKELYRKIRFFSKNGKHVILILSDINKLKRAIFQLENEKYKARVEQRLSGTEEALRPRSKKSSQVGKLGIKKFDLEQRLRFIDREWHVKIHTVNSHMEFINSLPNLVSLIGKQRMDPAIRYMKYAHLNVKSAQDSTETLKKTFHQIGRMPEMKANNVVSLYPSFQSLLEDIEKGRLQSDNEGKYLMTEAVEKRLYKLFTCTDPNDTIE
As to the kind of experiment: co-purification; Mus81 (or derivative) and Mms4 (or Mms4_(Δ40N)) co-expressed in E. coli; phosphocellulose, Ni2+-NTA, glycerol gradient sedimentation (500-mM NaCl); SDS-PAGE, Coomassie blue.

B1: Mus81 of the wild-type Mus81–Mms4 complex (protein, UniProt Q04149 1-632)
chain: MELSSNLKDLYIEWLQELVDGLTPKQEQLKIAYEKAKRNLQNAEGSFYYPTDLKKVKGIGNTIIKRLDTKLRNYCKIHHISPVEAPSLTQTSSTRPPKRTTTALRSIVNSCENDKNEAPEEKGTKKRKTRKYIPKKRSGGYAILLSLLELNAIPRGVSKEQIIEVAGKYSDHCMTPNFSTKEFYGAWSSIAALKKHSLVLEEGRPKRYSLTEEGVELTKSLKTADGISFPKENEEPNEYSVTRNESSEFTANLTDLRGEYGKEEEPCDINNTSFMLDITFQDLSTPQRLQNNVFKNDRLNSQTNISSHKLEEVSDDQTVPDSALKAKSTIKRRRYNGVSYELWCSGDFEVFPIIDHREIKSQSDREFFSRAFERKGMKSEIRQLALGDIIWVAKNKNTGLQCVLNTIVERKRLDDLALSIRDNRFMEQKNRLEKSGCEHKYYLIEETMSGNIGNMNEALKTALWVILVYYKFSMIRTCNSDETVEKIHALHTVISHHYSQKDLIVIFPSDLKSKDDYKKVLLQFRREFERKGGIECCHNLECFQELMGKGDLKTVGELTIHVLMLVKGISLEKAVAIQEIFPTLNKILMAYKTCSSEEEAKLLMFNVLGDAPGAKKITKSLSEKIYDAFGKL
For the molecule B1, the binding entry was “binds”.

The values above are taken from publication PMC4330386 (Nucleic Acids Research, 2015).
